Experimental data from publication PMC9905990.
No constants are given. Whether binding was seen depends on the method and setting. In cells and extracts the contact can be indirect. Some results given as binding are weak or reduced against the parent protein; the word gives no strength.

Chains of the proteins cited; added tags and fusions are not shown.
UniProt O35730: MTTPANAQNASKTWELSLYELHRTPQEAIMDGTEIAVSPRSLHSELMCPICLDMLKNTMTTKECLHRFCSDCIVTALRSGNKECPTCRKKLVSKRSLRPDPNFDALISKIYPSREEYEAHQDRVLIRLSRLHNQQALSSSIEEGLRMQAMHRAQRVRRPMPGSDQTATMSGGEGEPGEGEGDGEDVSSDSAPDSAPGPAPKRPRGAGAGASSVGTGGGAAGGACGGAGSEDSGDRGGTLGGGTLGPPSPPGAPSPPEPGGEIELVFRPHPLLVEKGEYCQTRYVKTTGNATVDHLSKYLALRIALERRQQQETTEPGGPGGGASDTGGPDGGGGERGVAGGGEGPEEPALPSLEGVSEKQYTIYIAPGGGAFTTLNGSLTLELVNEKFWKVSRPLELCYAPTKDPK
UniProt P42582: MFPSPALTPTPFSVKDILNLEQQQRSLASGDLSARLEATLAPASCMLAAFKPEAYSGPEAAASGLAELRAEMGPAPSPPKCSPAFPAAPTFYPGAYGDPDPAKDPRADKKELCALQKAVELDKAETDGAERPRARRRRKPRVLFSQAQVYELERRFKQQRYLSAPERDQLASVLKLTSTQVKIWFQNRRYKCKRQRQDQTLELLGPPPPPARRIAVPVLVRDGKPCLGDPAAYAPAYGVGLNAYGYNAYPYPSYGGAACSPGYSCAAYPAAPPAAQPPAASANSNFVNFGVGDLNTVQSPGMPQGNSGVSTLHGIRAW
UniProt Q9JLQ4: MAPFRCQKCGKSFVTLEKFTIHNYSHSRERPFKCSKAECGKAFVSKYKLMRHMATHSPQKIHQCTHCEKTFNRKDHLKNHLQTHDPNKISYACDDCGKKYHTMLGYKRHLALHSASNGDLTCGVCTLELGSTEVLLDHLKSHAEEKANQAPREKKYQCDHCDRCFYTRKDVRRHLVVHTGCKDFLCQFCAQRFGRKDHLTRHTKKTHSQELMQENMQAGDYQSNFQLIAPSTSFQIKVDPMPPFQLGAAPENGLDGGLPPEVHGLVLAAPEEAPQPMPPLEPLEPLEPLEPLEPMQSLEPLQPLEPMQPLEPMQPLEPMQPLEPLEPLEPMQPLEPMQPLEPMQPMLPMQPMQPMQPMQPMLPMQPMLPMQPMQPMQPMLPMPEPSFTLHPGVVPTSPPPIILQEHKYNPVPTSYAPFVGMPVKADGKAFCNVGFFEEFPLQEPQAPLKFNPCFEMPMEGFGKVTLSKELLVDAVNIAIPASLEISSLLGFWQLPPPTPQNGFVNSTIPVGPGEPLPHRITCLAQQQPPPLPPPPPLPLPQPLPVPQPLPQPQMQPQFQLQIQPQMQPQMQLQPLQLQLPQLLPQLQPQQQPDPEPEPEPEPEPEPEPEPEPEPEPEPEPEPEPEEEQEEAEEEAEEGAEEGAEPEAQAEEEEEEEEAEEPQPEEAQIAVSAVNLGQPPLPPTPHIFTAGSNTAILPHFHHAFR
UniProt Q8CFN5: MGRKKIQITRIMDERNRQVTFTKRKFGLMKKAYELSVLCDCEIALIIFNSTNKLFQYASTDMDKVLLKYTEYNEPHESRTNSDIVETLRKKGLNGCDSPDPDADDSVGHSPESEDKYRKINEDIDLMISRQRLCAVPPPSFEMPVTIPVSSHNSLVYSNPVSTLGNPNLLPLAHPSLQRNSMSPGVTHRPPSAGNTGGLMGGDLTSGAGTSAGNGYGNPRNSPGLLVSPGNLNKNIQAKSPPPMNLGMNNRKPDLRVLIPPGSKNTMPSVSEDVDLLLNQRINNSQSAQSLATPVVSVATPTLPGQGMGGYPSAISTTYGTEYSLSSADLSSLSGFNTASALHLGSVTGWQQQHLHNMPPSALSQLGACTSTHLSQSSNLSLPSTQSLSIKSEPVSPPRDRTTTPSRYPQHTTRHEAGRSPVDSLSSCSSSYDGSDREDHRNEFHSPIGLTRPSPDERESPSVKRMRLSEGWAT

molecular target: T1, RING1 and YY1 binding protein (RYBP) (UniProt Q8CCI5); experiment: co-IP; HEK293 cells co-transfected with 5 ug FLAG construct and 5 ug pcDNA3.1-Rybp; pre-cleared whole cell lysate incubated overnight at 4 C with anti-RYBP antibody bound to Protein A-Sepharose beads; washed five times with 1X PBS; blot with anti-FLAG M2-HRP
T1 sequence: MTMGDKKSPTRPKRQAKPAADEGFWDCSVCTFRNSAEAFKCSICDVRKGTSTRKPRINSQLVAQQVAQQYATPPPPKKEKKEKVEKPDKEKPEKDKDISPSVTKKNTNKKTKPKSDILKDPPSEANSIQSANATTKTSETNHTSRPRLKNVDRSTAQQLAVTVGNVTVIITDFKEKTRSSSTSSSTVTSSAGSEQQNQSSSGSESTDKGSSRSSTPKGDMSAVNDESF

**Q.** “RING1, FLAG-tagged (from UniProt O35730 1-406)” was tested. Which binding did it give?
**A.** Its binding is “binds”.

**Q.** “NK2 homeobox 5 (NKX2-5), FLAG-tagged (from UniProt P42582 1-318)” was tested. Which binding did it give?
**A.** Its binding is “binds”.

**Q.** Which binding does the source give for “Pleiomorphic adenoma gene-like 1 (PLAGL1), FLAG-tagged (from UniProt Q9JLQ4 1-704)” here?
**A.** The binding was “no binding”.

**Q.** For “MEF2C, FLAG-tagged (from UniProt Q8CFN5 1-474)”, which binding is on record?
**A.** The binding was “no binding”.
